No constants are given. Whether binding was seen depends on the method and setting. In cells and extracts the contact can be indirect. Here binding means that the protein was enriched with, or labelled near, the bait; the list need not be complete. Where a sequence is shown, tags or fusion partners need not be part of it.

This test has as its target T1, EMP3 WT tagged with Myc-glycine-serine linker-BioID2 at the C-terminal end (UniProt P54852).
T1 sequence: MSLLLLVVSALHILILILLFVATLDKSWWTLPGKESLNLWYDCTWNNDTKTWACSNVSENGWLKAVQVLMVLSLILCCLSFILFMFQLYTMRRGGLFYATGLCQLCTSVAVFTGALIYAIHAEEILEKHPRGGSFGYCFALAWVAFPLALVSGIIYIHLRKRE
The experiment in a line: proximity labelling.

B1: STX12 (protein, UniProt Q86Y82 1-276)
chain: MSYGPLDMYRNPGPSGPQLRDFSSIIQTCSGNIQRISQATAQIKNLMSQLGTKQDSSKLQENLQQLQHSTNQLAKETNELLKELGSLPLPLSTSEQRQQRLQKERLMNDFSAALNNFQAVQRRVSEKEKESIARARAGSRLSAEERQREEQLVSFDSHEEWNQMQSQEDEVAITEQDLELIKERETAIRQLEADILDVNQIFKDLAMMIHDQGDLIDSIEANVESSEVHVERATEQLQRAAYYQKKSRKKMCILVLVLSVIILILGLIIWLVYKTK
Turning to B1, the binding result is “binds”.
